Measurements reported in PubChem BioAssay AID686938 (Drosophila RNAi Screening Center, 2013).
The deposit covers about 23,000 reagents; below is a random part of those that have a named target and a result. Over the whole deposit, 75 (0.33%) are marked active. 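Raw plate signals without normalisation; calls rest on plate z-scores that were not deposited; ratio present for only 364 wells.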 The record does not give: the dose of the treatment.

Purpose: 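Looking for CRAC channel components and the factors controlling them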 (primary screen)
System: Drosophila S2R+ cells
Reagents: long dsRNA against Drosophila genes, about 0.25 µg dsRNA per well, roughly 10,000 cells
Time to read-out: 5 days of knock-down before the calcium assay
Challenge: thapsigargin (SERCA pump blocker) to empty calcium stores; entry signal taken 4 min after adding it
Measured: 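Duplicate raw fluo-4 intensities per well from a plate reader, at rest and four minutes after thapsigargin emptied calcium stores; entry-to-rest ratio filled for only some wells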
Reading the numbers: calcium entry signal: higher = stronger calcium signal after store depletion; resting calcium signal: higher = higher resting calcium signal
Hit rule: 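Hit if the duplicate-averaged plate z-score for entry over resting signal is under −3; wells with weak total dye signal (Fmax z < −2) or more than 5 off-targets removed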
Calls: active = strongly reduced calcium entry; inactive = no strong reduction

RhoGEF64C (Rho guanine nucleotide exchange factor at 64C) [DRSC08318] | calcium entry signal, replicate 1 (fluorescence units): 5.13e7; calcium entry signal, replicate 2 (fluorescence units): 3.46e7; resting calcium signal, replicate 1 (fluorescence units): 3.51e7; resting calcium signal, replicate 2 (fluorescence units): 1.56e7; outcome: inactive
RhoGEF64C (Rho guanine nucleotide exchange factor at 64C) [DRSC08319] | calcium entry signal, replicate 1 (fluorescence units): 3.08e7; calcium entry signal, replicate 2 (fluorescence units): 5.14e7; resting calcium signal, replicate 1 (fluorescence units): 1.43e7; resting calcium signal, replicate 2 (fluorescence units): 2.07e7; outcome: inactive
Cyp313a3 (Cytochrome P450 313a3) [DRSC16626] | calcium entry signal, replicate 1 (fluorescence units): 4.01e7; calcium entry signal, replicate 2 (fluorescence units): 2.79e7; resting calcium signal, replicate 1 (fluorescence units): 2.04e7; resting calcium signal, replicate 2 (fluorescence units): 1.50e7; outcome: inactive
rib (ribbon) [DRSC07021] | calcium entry signal, replicate 1 (fluorescence units): 2.84e7; calcium entry signal, replicate 2 (fluorescence units): 2.80e7; resting calcium signal, replicate 1 (fluorescence units): 1.30e7; resting calcium signal, replicate 2 (fluorescence units): 1.36e7; outcome: inactive
Ppm1 [DRSC08260] | calcium entry signal, replicate 1 (fluorescence units): 3.95e7; calcium entry signal, replicate 2 (fluorescence units): 4.49e7; resting calcium signal, replicate 1 (fluorescence units): 2.01e7; resting calcium signal, replicate 2 (fluorescence units): 1.92e7; outcome: inactive
5-HT7 (5-hydroxytryptamine (serotonin) receptor 7) [DRSC12635] | calcium entry signal, replicate 1 (fluorescence units): 4.50e7; calcium entry signal, replicate 2 (fluorescence units): 4.48e7; resting calcium signal, replicate 1 (fluorescence units): 1.92e7; resting calcium signal, replicate 2 (fluorescence units): 2.00e7; outcome: inactive
CG34149 [DRSC14537] | calcium entry signal, replicate 1 (fluorescence units): 3.37e7; calcium entry signal, replicate 2 (fluorescence units): 3.12e7; resting calcium signal, replicate 1 (fluorescence units): 1.67e7; resting calcium signal, replicate 2 (fluorescence units): 1.44e7; outcome: inactive
CG18558 [DRSC00525] | calcium entry signal, replicate 1 (fluorescence units): 3.27e7; calcium entry signal, replicate 2 (fluorescence units): 3.96e7; resting calcium signal, replicate 1 (fluorescence units): 1.64e7; resting calcium signal, replicate 2 (fluorescence units): 1.75e7; outcome: inactive
CG18558 [DRSC21593] | calcium entry signal, replicate 1 (fluorescence units): 2.45e7; calcium entry signal, replicate 2 (fluorescence units): 3.18e7; resting calcium signal, replicate 1 (fluorescence units): 1.36e7; resting calcium signal, replicate 2 (fluorescence units): 1.41e7; outcome: inactive
AIMP1 (aaRS-interacting multifunctional protein 1) [DRSC07118] | calcium entry signal, replicate 1 (fluorescence units): 4.28e7; calcium entry signal, replicate 2 (fluorescence units): 3.78e7; resting calcium signal, replicate 1 (fluorescence units): 1.91e7; resting calcium signal, replicate 2 (fluorescence units): 1.70e7; outcome: inactive
CG5756 [DRSC06950] | calcium entry signal, replicate 1 (fluorescence units): 3.49e7; calcium entry signal, replicate 2 (fluorescence units): 3.98e7; resting calcium signal, replicate 1 (fluorescence units): 1.50e7; resting calcium signal, replicate 2 (fluorescence units): 1.79e7; outcome: inactive
Oatp33Ea (Organic anion transporting polypeptide 33Ea) [DRSC02859] | calcium entry signal, replicate 1 (fluorescence units): 3.07e7; resting calcium signal, replicate 1 (fluorescence units): 1.64e7; outcome: inactive
Ir60e (Ionotropic receptor 60e) [DRSC04227] | calcium entry signal, replicate 1 (fluorescence units): 3.83e7; calcium entry signal, replicate 2 (fluorescence units): 4.77e7; resting calcium signal, replicate 1 (fluorescence units): 1.94e7; resting calcium signal, replicate 2 (fluorescence units): 2.23e7; outcome: inactive
Cse1 (Chromosome segregation 1) [DRSC03287] | calcium entry signal, replicate 1 (fluorescence units): 1.92e7; calcium entry signal, replicate 2 (fluorescence units): 3.30e7; resting calcium signal, replicate 1 (fluorescence units): 1.49e7; resting calcium signal, replicate 2 (fluorescence units): 1.66e7; outcome: inactive
CG31418 [DRSC21780] | calcium entry signal, replicate 1 (fluorescence units): 4.05e7; calcium entry signal, replicate 2 (fluorescence units): 3.91e7; resting calcium signal, replicate 1 (fluorescence units): 2.41e7; resting calcium signal, replicate 2 (fluorescence units): 1.82e7; outcome: inactive
Pvf2 (PDGF- and VEGF-related factor 2) [DRSC00968] | calcium entry signal, replicate 1 (fluorescence units): 4.37e7; calcium entry signal, replicate 2 (fluorescence units): 2.90e7; resting calcium signal, replicate 1 (fluorescence units): 2.35e7; resting calcium signal, replicate 2 (fluorescence units): 1.82e7; outcome: inactive
Pvf2 (PDGF- and VEGF-related factor 2) [DRSC02283] | calcium entry signal, replicate 1 (fluorescence units): 3.67e7; calcium entry signal, replicate 2 (fluorescence units): 3.68e7; resting calcium signal, replicate 1 (fluorescence units): 2.10e7; resting calcium signal, replicate 2 (fluorescence units): 2.06e7; outcome: inactive
GAPcenA (GTPase activating protein and centrosome-associated) [DRSC10771] | calcium entry signal, replicate 1 (fluorescence units): 2.64e7; calcium entry signal, replicate 2 (fluorescence units): 4.39e7; resting calcium signal, replicate 1 (fluorescence units): 1.23e7; resting calcium signal, replicate 2 (fluorescence units): 1.81e7; outcome: inactive
Usp30 (Ubiquitin specific protease 30) [DRSC18265] | calcium entry signal, replicate 1 (fluorescence units): 4.15e7; calcium entry signal, replicate 2 (fluorescence units): 3.54e7; resting calcium signal, replicate 1 (fluorescence units): 1.88e7; resting calcium signal, replicate 2 (fluorescence units): 1.54e7; outcome: inactive
CG3984 [DRSC15530] | calcium entry signal, replicate 1 (fluorescence units): 3.86e7; calcium entry signal, replicate 2 (fluorescence units): 6.44e7; resting calcium signal, replicate 1 (fluorescence units): 1.81e7; resting calcium signal, replicate 2 (fluorescence units): 6.58e7; outcome: inactive
CG2127 [DRSC06821] | calcium entry signal, replicate 1 (fluorescence units): 3.71e7; calcium entry signal, replicate 2 (fluorescence units): 3.86e7; resting calcium signal, replicate 1 (fluorescence units): 1.72e7; resting calcium signal, replicate 2 (fluorescence units): 1.65e7; outcome: inactive

A run of entries of the results above, for reference:
Ir60e (Ionotropic receptor 60e) [DRSC04227] | calcium entry signal, replicate 1 (fluorescence units): 3.83e7; calcium entry signal, replicate 2 (fluorescence units): 4.77e7; resting calcium signal, replicate 1 (fluorescence units): 1.94e7; resting calcium signal, replicate 2 (fluorescence units): 2.23e7; outcome: inactive
Cse1 (Chromosome segregation 1) [DRSC03287] | calcium entry signal, replicate 1 (fluorescence units): 1.92e7; calcium entry signal, replicate 2 (fluorescence units): 3.30e7; resting calcium signal, replicate 1 (fluorescence units): 1.49e7; resting calcium signal, replicate 2 (fluorescence units): 1.66e7; outcome: inactive
CG31418 [DRSC21780] | calcium entry signal, replicate 1 (fluorescence units): 4.05e7; calcium entry signal, replicate 2 (fluorescence units): 3.91e7; resting calcium signal, replicate 1 (fluorescence units): 2.41e7; resting calcium signal, replicate 2 (fluorescence units): 1.82e7; outcome: inactive
